Data: article doi:10.1101/2024.11.08.622598
Results are given in words; binding and its absence hold for the method and conditions named. Binding seen in cells or lysates may run through a third protein. These calls come from enrichment with a bait or labelling near it, and not all partners need be listed.

Chains of the proteins cited; added tags and fusions are not shown.
UniProt Q96BN8: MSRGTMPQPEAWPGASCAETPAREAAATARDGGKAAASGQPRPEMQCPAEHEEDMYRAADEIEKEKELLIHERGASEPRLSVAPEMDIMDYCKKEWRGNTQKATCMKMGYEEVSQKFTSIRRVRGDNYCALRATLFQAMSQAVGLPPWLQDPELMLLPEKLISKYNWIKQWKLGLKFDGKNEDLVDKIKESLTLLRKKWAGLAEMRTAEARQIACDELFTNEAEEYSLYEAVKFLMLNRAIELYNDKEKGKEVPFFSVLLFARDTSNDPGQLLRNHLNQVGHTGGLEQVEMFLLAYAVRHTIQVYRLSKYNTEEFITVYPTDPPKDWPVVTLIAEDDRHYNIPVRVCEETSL
UniProt Q8N122: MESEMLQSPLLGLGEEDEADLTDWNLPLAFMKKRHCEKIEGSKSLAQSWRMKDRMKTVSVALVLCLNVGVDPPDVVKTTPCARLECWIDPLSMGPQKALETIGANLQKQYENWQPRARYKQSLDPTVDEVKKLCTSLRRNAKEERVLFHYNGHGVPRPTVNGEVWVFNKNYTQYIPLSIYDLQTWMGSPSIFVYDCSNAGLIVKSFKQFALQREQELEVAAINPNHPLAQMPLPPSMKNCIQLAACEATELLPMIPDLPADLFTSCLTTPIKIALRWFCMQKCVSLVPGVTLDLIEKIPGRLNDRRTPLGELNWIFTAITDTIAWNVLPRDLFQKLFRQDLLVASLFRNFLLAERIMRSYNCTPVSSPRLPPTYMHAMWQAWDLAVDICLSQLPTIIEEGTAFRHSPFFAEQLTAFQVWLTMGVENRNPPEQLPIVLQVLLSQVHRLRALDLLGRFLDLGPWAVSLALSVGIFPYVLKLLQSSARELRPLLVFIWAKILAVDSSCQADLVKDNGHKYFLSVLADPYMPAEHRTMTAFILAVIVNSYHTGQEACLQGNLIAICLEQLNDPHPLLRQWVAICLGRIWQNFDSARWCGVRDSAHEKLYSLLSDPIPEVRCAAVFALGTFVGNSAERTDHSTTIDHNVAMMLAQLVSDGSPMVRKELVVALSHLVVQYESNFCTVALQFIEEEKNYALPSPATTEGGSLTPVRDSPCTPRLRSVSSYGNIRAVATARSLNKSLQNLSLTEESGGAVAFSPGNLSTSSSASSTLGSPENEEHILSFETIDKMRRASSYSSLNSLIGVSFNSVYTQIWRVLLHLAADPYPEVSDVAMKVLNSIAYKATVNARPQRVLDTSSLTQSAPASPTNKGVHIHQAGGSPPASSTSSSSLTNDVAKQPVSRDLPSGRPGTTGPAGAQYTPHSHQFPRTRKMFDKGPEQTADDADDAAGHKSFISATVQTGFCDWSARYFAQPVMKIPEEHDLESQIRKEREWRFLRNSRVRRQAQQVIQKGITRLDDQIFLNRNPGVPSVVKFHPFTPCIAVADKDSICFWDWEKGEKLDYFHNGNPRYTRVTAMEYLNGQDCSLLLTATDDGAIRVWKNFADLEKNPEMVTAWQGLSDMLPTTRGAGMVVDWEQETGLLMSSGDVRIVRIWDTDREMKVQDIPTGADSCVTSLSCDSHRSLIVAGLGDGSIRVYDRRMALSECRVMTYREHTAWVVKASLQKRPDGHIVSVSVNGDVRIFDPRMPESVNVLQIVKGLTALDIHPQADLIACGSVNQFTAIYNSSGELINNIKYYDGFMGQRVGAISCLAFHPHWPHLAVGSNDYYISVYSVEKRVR

Biological target: 2xHA-2xStrep-OTULIN, full-length wild type (UniProt Q96BN8)
Test: affinity purification with mass spectrometry

RAPTOR, endogenous (from UniProt Q8N122 1-1335)
binding: binds
